Laboratory results taken from PubChem BioAssay AID330 (DTP/NCI, 2004).
The list is a part of this screen's results and no random one: its compounds were picked by chemical class. Not every dose and run of a compound is shown. T/C gives the treated animals as a percentage of the vehicle group. Some doses have a count of surviving animals in place of a T/C: the source holds a T/C of zero for them, seemingly a mark for toxic or unscored doses. Some survivor counts are full or nearly so, which does not show that the dose was tolerated: the source hardly ever lists a survival T/C far under the control, and the zero likely stands for such cases as well. Survivors were counted at the toxicity check, usually on the fifth day, unless a day is given; later deaths do not show. Schedules are NCI's codes, read here as Q, the interval in days (D) or hours (H), X, the number of doses. For survival time, this PubChem deposit counts one and a half times the control or more as active, and values a quarter to a half above the control carry no call in these data; other NCI protocols may use other cut-offs. Some entries were tested several times; the values are given in rising order. Some entries show no survivor count and are marked so; the dose need not have been tolerated. Some T/C values are followed by the survivors on the day toxicity was checked, most often the fifth; where neither a count nor a note follows, no animal had died by that day.

Test system: P388 leukemia ip, CD2F1 mice, survival T/C
Experiment: NCI In Vivo Anticancer Drug Screen. Data for tumor model P388 Leukemia (intraperitoneal) in CD2F1 (CDF1) mice
Conditions: T/C endpoint: median survival time, higher T/C = longer survival
[1] = dose: 12.5 mg/kg/injection, schedule: Q01DX009 (ip), vehicle: Klucel (hydroxypropylcellulose) (HPC)
[2] = dose: 25.0 mg/kg/injection, schedule: Q01DX009 (ip), vehicle: Klucel (hydroxypropylcellulose) (HPC)
[3] = dose: 50.0 mg/kg/injection, schedule: Q01DX009 (ip), vehicle: Klucel (hydroxypropylcellulose) (HPC)
[4] = dose: 100.0 mg/kg/injection, schedule: Q01DX009 (ip), vehicle: Klucel (hydroxypropylcellulose) (HPC)
[5] = dose: 1.56 mg/kg/injection, schedule: Q01DX009 (ip), vehicle: saline
[6] = dose: 3.13 mg/kg/injection, schedule: Q01DX009 (ip), vehicle: saline

SMILES: F[As-](F)(F)(F)(F)F.c1ccc([As+](c2ccccc2)(c2ccccc2)c2ccccc2)cc1
- T/C [1]: 130 % of control
- T/C [2]: 135 and 140 % of control
- T/C [3]: 142 and 150 % of control
- T/C (dose: 50.0 mg/kg/injection, schedule: Q04DX003 (ip), vehicle: Klucel (hydroxypropylcellulose) (HPC)): 114 and 124 % of control
- T/C [4]: 145 [5 of 6 alive] and 159 % of control
- T/C (dose: 100.0 mg/kg/injection, schedule: Q04DX003 (ip), vehicle: Klucel (hydroxypropylcellulose) (HPC)): 118 and 141 % of control
- T/C (dose: 200.0 mg/kg/injection, schedule: Q01DX009 (ip), vehicle: Klucel (hydroxypropylcellulose) (HPC)): 155 % of control
- T/C (dose: 200.0 mg/kg/injection, schedule: Q04DX003 (ip), vehicle: Klucel (hydroxypropylcellulose) (HPC)): 138 and 141 % of control
- T/C (dose: 400.0 mg/kg/injection, schedule: Q04DX003 (ip), vehicle: Klucel (hydroxypropylcellulose) (HPC)): 129 and 150 % of control

SMILES: CC(=O)OCC#CC[N+]1([O-])CCCCC1.O=[N+]([O-])c1cc([N+](=O)[O-])c(O)c([N+](=O)[O-])c1
- T/C (dose: 12.5 mg/kg/injection, schedule: Q04DX002 (ip), vehicle: Klucel (hydroxypropylcellulose) (HPC)): 101 % of control
- T/C (dose: 25.0 mg/kg/injection, schedule: Q04DX002 (ip), vehicle: Klucel (hydroxypropylcellulose) (HPC)): 101 % of control
- T/C (dose: 50.0 mg/kg/injection, schedule: Q04DX002 (ip), vehicle: Klucel (hydroxypropylcellulose) (HPC)): 105 % of control
- survivor count (dose: 100.0 mg/kg/injection, schedule: Q04DX002 (ip), vehicle: Klucel (hydroxypropylcellulose) (HPC)): 2 of 6
- survivor count (dose: 200.0 mg/kg/injection, schedule: Q04DX002 (ip), vehicle: Klucel (hydroxypropylcellulose) (HPC)): 0 of 6
- survivor count (dose: 400.0 mg/kg/injection, schedule: Q04DX002 (ip), vehicle: Klucel (hydroxypropylcellulose) (HPC)): 0 of 6

SMILES: CC1CC[P+](C)(c2ccccc2)c2ccccc21.F[P-](F)(F)(F)(F)F (centres undefined)
- T/C (dose: 0.78 mg/kg/injection, schedule: Q01DX009 (ip), vehicle: saline): 93 % of control
- T/C [5]: 103 % of control
- T/C [6]: 103 % of control

SMILES: ClP1Nc2cncnc2N1 (centres undefined)
- T/C (dose: 60.0 mg/kg/injection, schedule: Q01DX005 (ip), vehicle: suspension in saline): 103 % of control
- T/C (dose: 120.0 mg/kg/injection, schedule: Q01DX005 (ip), vehicle: suspension in saline): 104 % of control
- T/C (dose: 240.0 mg/kg/injection, schedule: Q01DX005 (ip), vehicle: suspension in saline): 104 % of control

SMILES: O=P(Cl)(NC12CC3CC(CC(C3)C1)C2)c1ccccc1 (centres undefined)
- T/C [1]: 100 % of control
- T/C [2]: 90 % of control
- T/C [3]: 102 % of control
- T/C [4]: 98 % of control

SMILES: NP(=O)(N(CCCl)CCCl)N1CC1 (centres undefined)
- T/C [5]: 108 % of control
- T/C [6]: 126 % of control
- T/C (dose: 6.25 mg/kg/injection, schedule: Q01DX009 (ip), vehicle: saline): 138 % of control
- T/C (dose: 12.5 mg/kg/injection, schedule: Q01DX009 (ip), vehicle: saline): 178 % of control
- T/C (dose: 25.0 mg/kg/injection, schedule: Q01DX009 (ip), vehicle: saline): 270 % of control
- survivor count (dose: 50.0 mg/kg/injection, schedule: Q01DX009 (ip), vehicle: saline): 6 of 6

SMILES: COc1cc([N+](=O)[O-])c([N+](=O)[O-])cc1N
- T/C (dose: 60.0 mg/kg/injection, schedule: Q01DX005 (ip), vehicle: saline): 101 % of control
- T/C (dose: 120.0 mg/kg/injection, schedule: Q01DX005 (ip), vehicle: saline): 103 % of control
- T/C (dose: 240.0 mg/kg/injection, schedule: Q01DX005 (ip), vehicle: saline): 101 % of control

SMILES: COP(C)(=O)O.[Th]
- T/C (dose: 50.0 mg/kg/injection, schedule: Q01DX009 (ip), vehicle: saline with Tween-80): 87 % of control [survivor count not shown]
- T/C (dose: 100.0 mg/kg/injection, schedule: Q01DX009 (ip), vehicle: saline with Tween-80): 87 % of control [survivor count not shown]

SMILES: CC(C)c1nc([N+](=O)[O-])cn1P(=O)(Oc1ccccc1)OC1CC(C)(C)N(O)C(C)(C)C1 (centres undefined)
- T/C (dose: 25.0 mg/kg/injection, schedule: Q01DX009 (ip), vehicle: saline + alcohol): 100 % of control
- T/C (dose: 50.0 mg/kg/injection, schedule: Q01DX009 (ip), vehicle: saline + alcohol): 100 % of control
- T/C (dose: 100.0 mg/kg/injection, schedule: Q01DX009 (ip), vehicle: saline + alcohol): 105 % of control
